The test system of the data set is 38 kDa W-14 Photorhabdus metalloprotease. Description: Cleavage of TcbA by Photorhabdus metalloprotease, SDS-PAGE densitometry. The class given is biochemical, Photorhabdus luminescens.
[1] abbreviates: 38 kDa protease treatment, 1.5 unit, 37° C., 90 min.

As for “TcbA: peptide TcbA, SEQ ID NO:12; in Table 24 bioassay lines the TcbA-enriched toxin B complex fraction of W-14 broth”, the “% of total protein” value by setting is: under setting [1], 18%; (Control (protease omitted)) 58%.

Take “TcbAii: W-14 toxin peptide processed from TcbA, SEQ ID NO:53”: the “% of total protein” value by setting is: under setting [1], 64%; (Control (protease omitted)) 36%.

B1: TcbAiii: W-14 toxin peptide processed from TcbA, SEQ ID NO:55 (protein)
chain: LGTANSLTALFLPQENSKLKGYWRTLAQRMFNLRHNLSIDGQPLSLPLYAKPADPKALLSAAVSASQGGADLPKAPLTIHRFPQMLEGARGLVNQLIQFGSSLLGYSERQDAEAMSQLLQTQASELILTSIRMQDNQLAELDSEKTALQVSLAGVQQRFDSYSQLYEENINAGEQRALALRSESAIESQGAQISRMAGAGVDMAPNIFGLADGGMHYGAIAYAIADGIELSASAKMVDAEKVAQSEIYRRRRQEWKIQRDNAQAEINQLNAQLESLSIRREAAEMQKEYLKTQQAQAQAQLTFLRSKFSNQALYSWLRGRLSGIYFQFYDLAVSRCLMAEQSYQWEANDNSISFVKPGAWQGTYAGLLCGEALIQNLAQMEEAYLKWESRALEVERTVSLAVVYDSLEGNDRFNLAEQIPALLDKGEGTAGTKENGLSLANAILSASVKLSDLKLGTDYPDSIVGSNKVRRIKQISVSLPALVGPYQDVQAMLSYGGSTQLPKGCSALAVSHGTNDSGQFQLDFNDGKYLPFEGIALDDQGTLNLQFPNATDKQKAILQTMSDIILHIRYTIR
Take B1: the “% of total protein” value under setting [1] is 18% and the “% of total protein” value (Control (protease omitted)) was 6%.

The values above are taken from patent US6528484B1, “Insecticidal protein toxins from Photorhabdus” (priority 1993, dated 2003).
